Laboratory results published in article doi:10.1101/402990 (bioRxiv, 2018).
These are yes or no findings as the source states them, for the method shown. Binding seen in cells or lysates may run through a third protein. Some entries that bind do so weakly or less than the wild type. Where a sequence is shown, tags or fusion partners need not be part of it. Each block holds one binder with its values, some of them ahead of it.

The chains behind the UniProt entries cited, without tags or fusion partners.
UniProt P50527: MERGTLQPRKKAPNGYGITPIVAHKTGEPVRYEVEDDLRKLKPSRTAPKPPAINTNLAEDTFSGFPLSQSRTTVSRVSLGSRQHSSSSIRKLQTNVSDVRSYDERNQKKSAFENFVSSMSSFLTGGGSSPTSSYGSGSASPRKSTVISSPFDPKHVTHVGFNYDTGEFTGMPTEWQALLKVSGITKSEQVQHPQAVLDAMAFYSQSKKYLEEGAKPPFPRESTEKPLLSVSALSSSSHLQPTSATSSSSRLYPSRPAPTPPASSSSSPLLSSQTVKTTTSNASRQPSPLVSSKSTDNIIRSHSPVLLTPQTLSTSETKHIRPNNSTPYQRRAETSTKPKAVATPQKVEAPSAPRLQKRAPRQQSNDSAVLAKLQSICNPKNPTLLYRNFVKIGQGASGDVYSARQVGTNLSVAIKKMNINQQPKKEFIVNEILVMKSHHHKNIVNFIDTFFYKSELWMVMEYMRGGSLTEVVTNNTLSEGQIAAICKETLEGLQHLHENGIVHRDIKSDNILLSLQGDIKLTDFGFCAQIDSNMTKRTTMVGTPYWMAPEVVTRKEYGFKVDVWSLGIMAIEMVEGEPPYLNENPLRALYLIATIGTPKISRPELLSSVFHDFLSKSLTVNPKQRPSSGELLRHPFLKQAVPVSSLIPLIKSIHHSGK

Tests used:
[1] = target: GFP-Shk1 (S. pombe) (UniProt P50527); experiment: co-IP
[2] = target: Tea3 (Tea3-GFP co-expressed with the untagged WT allele of Tea3) (S. pombe) (UniProt O14248); experiment: co-IP

binding [1]: binds
B1: Tea3 (endogenous, untagged) (protein, UniProt O14248 1-1125)
chain: MVQKVLSRQSDNSQDVSAEQLDVVESGSIDQQNIRAWVVRKVKENDKRTSTNQSFKWEAVKPASCLDAANEKFMYLHGGREKSGISNSLFKLDLDSCTVYSHNRGEDNDSPARVGHSIVCSADTIYLFGGCDSETDSTFEVGDNSLYAYNFKSNQWNLVSTQSPLPSPRTGHSMLLVDSKLWIFGGECQGKYLNDIHLFDTKGVDRRTQSELKQKANANNVEKANMEFDETDWSWETPFLHSSSPPPRSNHSVTLVQGKIFVHGGHNDTGPLSDLWLFDLETLSWTEVRSIGRFPGPREGHQATTIDDTVYIYGGRDNKGLILNELWAFNYSQQRWSLVSNPIPILLSDSSSYKIVSKNNHILLLYLNALDAPKQLLCYEADPKNLYWDKDKFSDIPVLQHISMKPSNASNHTVSLGYLNDRPNHSKKNSVTSTSSSQFNNFLEQNQKAVRSARHRHYASLDEQGLHSLRNLSKTSGMNHSADFSLHEFGQADPFAYEIEKPIASLPLPNGNDTISRSSESSSPINESESNSLLKLQSDFKFSNSDDRVAWLEEQLLYCMQQGYTLKPPNLFQHVDEKLRLEKKEQLSYLEILKVIEQMLESNEQKFKKQIVSLASENAKLAAQRDAAVENANYSRSLIQKKTTDETVGSLIEKVGKLEYEVQGTLEEATSYYQKNTELQQLLKQNESASELLKSRNEKLCVDYDKLRSVFEEDSSKILSLQKENENLQSQILQISEELVDYRSRCEALEYGNYELETKLIEMHDRVEMQTNVIEASASALDVSNTAILSFEDSLRRERDEKSTLQQKCLNLQYEYENVRIELENLQSRALELESALEQSVSDAKYSKAIMQSGLSKLLSSINENKDNLKEFSKSKQKISYLESQLEGLHELLRESQRLCEGRTKELLNSQQKLYDLKHSYSSVMTEKSKLSDQVNDLTEQAKITQRKLSEVQIALADSKMNQQLSGKDSTDVHLPTDFSASSSPLRSYFNEEDSFNNASAAHSSKESDIPSGGVFTKYRNHFGNLMTSEETKAPDNNDLHKRLSDVINSQQKFLSLSPQVSKDYYDVRSKLNDTAGSFSGEEMRAIDDNYYASRIKQLEDDYQKAITYANCSDESFQQLSHSFM

binding [2]: binds
B2: Tea3 (Tea3-GFP co-expressed with the untagged WT allele of Tea3) (protein, UniProt O14248 1-1125)
chain: B1 chain
